Data reported in article PMC11733159.
No constants are given. Whether binding was seen depends on the method and setting. Binding seen in cells or lysates may run through a third protein. Some entries that bind do so weakly or less than the wild type. For part of these data: Tags and fused reporters may be left off the sequences shown.

Tests used:
[1] = molecular target: T1, RNF128 (endogenous, THP-1) (human (endogenous in THP-1)) (UniProt Q8TEB7); experiment: co-IP; total THP-1 cell lysates (endogenous proteins) immunoprecipitated with anti-RNF128 or anti-S100A8 antibodies; western blot
T1 sequence: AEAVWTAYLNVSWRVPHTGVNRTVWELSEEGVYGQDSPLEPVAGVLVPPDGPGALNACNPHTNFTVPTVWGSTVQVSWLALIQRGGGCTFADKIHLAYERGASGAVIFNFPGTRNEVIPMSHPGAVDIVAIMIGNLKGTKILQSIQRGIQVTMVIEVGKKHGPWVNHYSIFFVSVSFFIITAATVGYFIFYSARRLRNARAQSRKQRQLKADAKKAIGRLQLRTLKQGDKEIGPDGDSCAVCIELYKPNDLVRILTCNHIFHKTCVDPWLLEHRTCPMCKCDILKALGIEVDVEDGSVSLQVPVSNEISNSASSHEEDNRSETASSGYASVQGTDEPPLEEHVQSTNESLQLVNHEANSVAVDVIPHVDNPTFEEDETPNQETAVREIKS

[2] = molecular target: T2, S100A8 (endogenous, THP-1) (human (endogenous in THP-1)) (UniProt P05109); experiment: as above
T2 sequence: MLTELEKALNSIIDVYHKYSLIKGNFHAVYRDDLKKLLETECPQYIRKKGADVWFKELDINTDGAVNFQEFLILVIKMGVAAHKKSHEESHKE

[3] = molecular target: T3, RNF128-Flag_(277-428) (human) (UniProt Q8TEB7); experiment: co-IP; 293T (printed 239T) cells co-transfected with Flag- and GFP-tagged constructs for 48 h; total lysates immunoprecipitated with anti-Flag or anti-GFP antibodies; western blot
T3 sequence: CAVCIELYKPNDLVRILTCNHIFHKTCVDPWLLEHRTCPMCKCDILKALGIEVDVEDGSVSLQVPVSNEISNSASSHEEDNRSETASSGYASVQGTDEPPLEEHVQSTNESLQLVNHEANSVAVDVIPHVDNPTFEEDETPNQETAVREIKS

[4] = molecular target: T4, RNF128-Flag (in 293T cells) (human) (UniProt Q8TEB7); experiment: as above
T4 sequence: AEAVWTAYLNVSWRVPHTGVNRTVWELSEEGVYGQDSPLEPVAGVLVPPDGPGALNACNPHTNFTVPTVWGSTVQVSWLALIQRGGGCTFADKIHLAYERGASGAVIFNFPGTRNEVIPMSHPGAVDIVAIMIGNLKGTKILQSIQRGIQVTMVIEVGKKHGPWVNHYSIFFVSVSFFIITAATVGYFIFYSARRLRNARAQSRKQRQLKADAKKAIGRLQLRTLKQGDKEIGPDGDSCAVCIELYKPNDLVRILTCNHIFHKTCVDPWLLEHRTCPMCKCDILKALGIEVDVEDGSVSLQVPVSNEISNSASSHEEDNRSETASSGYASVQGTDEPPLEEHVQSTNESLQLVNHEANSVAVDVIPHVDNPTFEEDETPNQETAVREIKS

[5] = molecular target: T5, S100A8-GFP_(1-46) (human) (UniProt P05109); experiment: as above
T5 sequence: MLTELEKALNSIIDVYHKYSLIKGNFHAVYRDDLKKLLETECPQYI

[6] = molecular target: T6, S100A8-GFP (human) (UniProt P05109); experiment: as above
T6 sequence: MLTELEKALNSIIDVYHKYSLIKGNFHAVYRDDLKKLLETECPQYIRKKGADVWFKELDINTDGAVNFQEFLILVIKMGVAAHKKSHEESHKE

B1: S100A8 (endogenous, THP-1) (protein, UniProt P05109 1-93)
chain: MLTELEKALNSIIDVYHKYSLIKGNFHAVYRDDLKKLLETECPQYIRKKGADVWFKELDINTDGAVNFQEFLILVIKMGVAAHKKSHEESHKE
[1]
  binding: binds

B2: RNF128 (endogenous, THP-1) (enzyme, UniProt Q8TEB7 39-428)
chain: AEAVWTAYLNVSWRVPHTGVNRTVWELSEEGVYGQDSPLEPVAGVLVPPDGPGALNACNPHTNFTVPTVWGSTVQVSWLALIQRGGGCTFADKIHLAYERGASGAVIFNFPGTRNEVIPMSHPGAVDIVAIMIGNLKGTKILQSIQRGIQVTMVIEVGKKHGPWVNHYSIFFVSVSFFIITAATVGYFIFYSARRLRNARAQSRKQRQLKADAKKAIGRLQLRTLKQGDKEIGPDGDSCAVCIELYKPNDLVRILTCNHIFHKTCVDPWLLEHRTCPMCKCDILKALGIEVDVEDGSVSLQVPVSNEISNSASSHEEDNRSETASSGYASVQGTDEPPLEEHVQSTNESLQLVNHEANSVAVDVIPHVDNPTFEEDETPNQETAVREIKS
[2]
  binding: binds

B3: S100A8-GFP (protein, UniProt P05109 1-93)
chain: MLTELEKALNSIIDVYHKYSLIKGNFHAVYRDDLKKLLETECPQYIRKKGADVWFKELDINTDGAVNFQEFLILVIKMGVAAHKKSHEESHKE
[3]
  binding: binds
[4]
  binding: binds

B4: RNF128-Flag (in 293T cells) (enzyme, UniProt Q8TEB7 39-428)
chain: AEAVWTAYLNVSWRVPHTGVNRTVWELSEEGVYGQDSPLEPVAGVLVPPDGPGALNACNPHTNFTVPTVWGSTVQVSWLALIQRGGGCTFADKIHLAYERGASGAVIFNFPGTRNEVIPMSHPGAVDIVAIMIGNLKGTKILQSIQRGIQVTMVIEVGKKHGPWVNHYSIFFVSVSFFIITAATVGYFIFYSARRLRNARAQSRKQRQLKADAKKAIGRLQLRTLKQGDKEIGPDGDSCAVCIELYKPNDLVRILTCNHIFHKTCVDPWLLEHRTCPMCKCDILKALGIEVDVEDGSVSLQVPVSNEISNSASSHEEDNRSETASSGYASVQGTDEPPLEEHVQSTNESLQLVNHEANSVAVDVIPHVDNPTFEEDETPNQETAVREIKS
[5]
  binding: binds
[6]
  binding: binds
